No constants are given. Whether binding was seen depends on the method and setting. For some of these results: Binding seen in cells or lysates may run through a third protein. Some entries that bind do so weakly or less than the wild type.
Tests used:
[1] = molecular target: EEF1G Maltose Binding Protein (MBP)-fusion protein (human) (UniProt P26641); assay: in vitro pulldown with MBP-fusion protein
[2] = molecular target: GFM1 Maltose Binding Protein (MBP)-fusion protein (human) (UniProt Q96RP9); assay: in vitro pulldown with MBP-fusion protein
[3] = molecular target: titin fragment A168-170 GST-fusion protein [GST: P08515]; assay: Alpha screen (amplified luminescent proximity homogenous assay), streptavidin donor and glutathione acceptor beads, titration in microtitre wells
[4] = molecular target: GFM1 (NP_079272.4) (human) (UniProt Q96RP9); assay: yeast two-hybrid
[5] = molecular target: T1, PDHB (NP_000916.2) (human) (UniProt P11177); assay: yeast two-hybrid
T1 sequence (looked up): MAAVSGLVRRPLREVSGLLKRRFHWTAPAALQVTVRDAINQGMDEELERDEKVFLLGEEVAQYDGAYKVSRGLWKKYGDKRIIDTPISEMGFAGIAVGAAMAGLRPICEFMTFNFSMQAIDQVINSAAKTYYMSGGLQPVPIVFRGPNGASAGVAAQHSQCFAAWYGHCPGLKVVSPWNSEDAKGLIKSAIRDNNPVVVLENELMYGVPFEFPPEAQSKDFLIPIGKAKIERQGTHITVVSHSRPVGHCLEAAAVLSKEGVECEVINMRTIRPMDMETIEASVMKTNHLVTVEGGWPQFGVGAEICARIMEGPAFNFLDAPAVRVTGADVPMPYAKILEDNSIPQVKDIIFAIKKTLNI

Chains of the proteins cited; added tags and fusions are not shown. Lines headed by an entry give the natural chain unless they say otherwise; changes in a name come on top.
UniProt P26641: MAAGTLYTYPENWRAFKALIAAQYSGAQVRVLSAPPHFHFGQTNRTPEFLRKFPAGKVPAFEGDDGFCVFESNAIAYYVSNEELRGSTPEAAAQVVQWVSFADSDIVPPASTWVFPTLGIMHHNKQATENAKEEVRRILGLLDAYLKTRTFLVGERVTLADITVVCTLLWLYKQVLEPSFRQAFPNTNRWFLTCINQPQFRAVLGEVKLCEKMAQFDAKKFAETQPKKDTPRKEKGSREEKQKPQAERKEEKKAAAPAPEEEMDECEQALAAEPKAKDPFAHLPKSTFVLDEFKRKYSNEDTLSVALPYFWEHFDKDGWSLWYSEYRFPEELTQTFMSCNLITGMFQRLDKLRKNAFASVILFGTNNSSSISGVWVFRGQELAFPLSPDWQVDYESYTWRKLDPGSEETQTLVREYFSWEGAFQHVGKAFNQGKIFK
UniProt Q96RP9: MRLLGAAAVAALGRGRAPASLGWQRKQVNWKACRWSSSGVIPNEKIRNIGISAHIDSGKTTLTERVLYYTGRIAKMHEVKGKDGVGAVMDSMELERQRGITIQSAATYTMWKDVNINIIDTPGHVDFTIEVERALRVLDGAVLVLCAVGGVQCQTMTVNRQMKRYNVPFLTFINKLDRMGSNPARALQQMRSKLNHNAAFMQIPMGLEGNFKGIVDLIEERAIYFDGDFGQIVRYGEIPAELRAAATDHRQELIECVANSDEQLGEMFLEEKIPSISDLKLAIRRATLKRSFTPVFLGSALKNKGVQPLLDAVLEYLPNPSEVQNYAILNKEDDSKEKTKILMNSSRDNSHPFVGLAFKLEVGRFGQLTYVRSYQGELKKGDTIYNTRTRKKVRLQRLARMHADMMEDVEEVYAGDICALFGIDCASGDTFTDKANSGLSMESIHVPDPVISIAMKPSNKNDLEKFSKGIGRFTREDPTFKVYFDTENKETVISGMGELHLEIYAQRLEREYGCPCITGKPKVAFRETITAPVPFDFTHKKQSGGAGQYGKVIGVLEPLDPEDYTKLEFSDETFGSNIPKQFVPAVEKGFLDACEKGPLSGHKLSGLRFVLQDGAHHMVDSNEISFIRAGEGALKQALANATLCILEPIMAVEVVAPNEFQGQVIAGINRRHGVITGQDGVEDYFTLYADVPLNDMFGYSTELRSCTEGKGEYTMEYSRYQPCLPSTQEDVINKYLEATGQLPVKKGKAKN
UniProt Q16654: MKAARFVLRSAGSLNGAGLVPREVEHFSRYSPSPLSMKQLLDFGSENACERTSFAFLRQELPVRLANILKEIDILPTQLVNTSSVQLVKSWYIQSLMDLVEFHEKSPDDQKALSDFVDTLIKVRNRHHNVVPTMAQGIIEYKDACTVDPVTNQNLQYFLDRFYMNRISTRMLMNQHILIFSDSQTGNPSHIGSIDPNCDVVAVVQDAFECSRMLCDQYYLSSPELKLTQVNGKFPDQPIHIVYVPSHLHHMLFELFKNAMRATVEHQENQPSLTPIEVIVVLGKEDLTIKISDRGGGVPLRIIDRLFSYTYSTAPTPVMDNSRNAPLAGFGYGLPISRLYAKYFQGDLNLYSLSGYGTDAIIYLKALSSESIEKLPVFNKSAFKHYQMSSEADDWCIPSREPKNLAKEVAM
UniProt Q15327: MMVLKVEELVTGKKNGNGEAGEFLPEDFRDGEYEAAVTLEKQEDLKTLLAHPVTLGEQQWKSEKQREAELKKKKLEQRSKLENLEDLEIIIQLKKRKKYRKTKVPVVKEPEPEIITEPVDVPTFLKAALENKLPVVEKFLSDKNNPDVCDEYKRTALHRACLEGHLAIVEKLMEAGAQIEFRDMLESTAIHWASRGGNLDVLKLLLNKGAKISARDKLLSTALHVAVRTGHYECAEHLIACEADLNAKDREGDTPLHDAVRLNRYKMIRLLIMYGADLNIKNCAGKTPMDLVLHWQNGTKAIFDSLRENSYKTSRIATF
UniProt P05413: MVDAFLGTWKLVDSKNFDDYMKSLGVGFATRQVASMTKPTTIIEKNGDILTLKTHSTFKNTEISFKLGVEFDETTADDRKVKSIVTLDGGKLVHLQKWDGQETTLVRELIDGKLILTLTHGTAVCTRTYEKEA
UniProt P15090: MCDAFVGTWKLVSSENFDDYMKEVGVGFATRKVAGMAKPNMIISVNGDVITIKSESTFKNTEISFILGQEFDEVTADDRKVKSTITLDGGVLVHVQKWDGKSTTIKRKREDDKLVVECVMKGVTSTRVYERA
UniProt P13929: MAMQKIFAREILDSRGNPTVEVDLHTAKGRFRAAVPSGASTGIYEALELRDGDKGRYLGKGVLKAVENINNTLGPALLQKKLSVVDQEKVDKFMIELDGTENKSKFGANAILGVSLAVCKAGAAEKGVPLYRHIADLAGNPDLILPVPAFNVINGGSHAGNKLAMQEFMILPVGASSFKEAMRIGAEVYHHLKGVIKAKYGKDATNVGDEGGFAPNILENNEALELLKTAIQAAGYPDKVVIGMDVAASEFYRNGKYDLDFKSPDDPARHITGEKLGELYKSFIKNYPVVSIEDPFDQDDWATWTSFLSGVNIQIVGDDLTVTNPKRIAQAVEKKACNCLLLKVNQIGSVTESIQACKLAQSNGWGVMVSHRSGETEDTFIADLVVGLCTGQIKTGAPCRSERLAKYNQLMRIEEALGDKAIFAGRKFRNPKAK
UniProt Q969Q1: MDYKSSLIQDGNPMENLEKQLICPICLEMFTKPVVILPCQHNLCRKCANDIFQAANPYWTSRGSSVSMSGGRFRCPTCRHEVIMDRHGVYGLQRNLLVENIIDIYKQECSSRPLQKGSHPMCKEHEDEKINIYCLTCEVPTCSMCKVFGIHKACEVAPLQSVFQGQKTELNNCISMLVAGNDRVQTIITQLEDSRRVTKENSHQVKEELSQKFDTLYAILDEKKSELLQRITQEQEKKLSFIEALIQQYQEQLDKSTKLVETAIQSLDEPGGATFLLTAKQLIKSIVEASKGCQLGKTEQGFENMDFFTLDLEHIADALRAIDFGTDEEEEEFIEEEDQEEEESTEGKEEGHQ
UniProt Q9BYV6: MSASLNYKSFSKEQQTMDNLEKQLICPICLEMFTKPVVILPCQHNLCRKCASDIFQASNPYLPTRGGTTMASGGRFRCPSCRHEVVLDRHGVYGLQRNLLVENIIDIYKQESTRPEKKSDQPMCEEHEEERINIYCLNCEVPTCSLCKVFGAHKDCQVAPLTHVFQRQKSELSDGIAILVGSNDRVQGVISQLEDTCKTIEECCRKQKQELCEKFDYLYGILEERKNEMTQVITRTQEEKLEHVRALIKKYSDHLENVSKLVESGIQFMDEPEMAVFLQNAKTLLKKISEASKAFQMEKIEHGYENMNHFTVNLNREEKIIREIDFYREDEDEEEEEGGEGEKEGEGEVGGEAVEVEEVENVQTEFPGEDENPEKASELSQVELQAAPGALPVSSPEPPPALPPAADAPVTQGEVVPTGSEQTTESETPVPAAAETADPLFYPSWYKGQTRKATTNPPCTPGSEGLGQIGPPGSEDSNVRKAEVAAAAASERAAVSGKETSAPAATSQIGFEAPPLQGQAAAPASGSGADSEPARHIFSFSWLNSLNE

[6] = molecular target: PDK4 (NP_002603.1) (human) (UniProt Q16654); assay: yeast two-hybrid
[7] = molecular target: T2, PRDX3 (NP_006784.1) (human) (UniProt P30048); assay: yeast two-hybrid
T2 sequence (looked up): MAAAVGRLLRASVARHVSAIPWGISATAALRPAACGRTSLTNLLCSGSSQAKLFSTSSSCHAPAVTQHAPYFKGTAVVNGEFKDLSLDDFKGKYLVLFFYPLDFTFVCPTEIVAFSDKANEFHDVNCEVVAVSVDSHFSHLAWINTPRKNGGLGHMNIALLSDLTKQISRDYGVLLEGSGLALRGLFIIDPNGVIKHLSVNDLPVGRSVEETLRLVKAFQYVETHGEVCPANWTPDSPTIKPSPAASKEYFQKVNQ

[8] = molecular target: CARP (NP_055206.2) (human) (UniProt Q15327); assay: yeast two-hybrid
DDIT4L (human) = molecular target: T3, DDIT4L (human) (UniProt Q96D03); assay: yeast two-hybrid (Figure 7)
T3 sequence (looked up): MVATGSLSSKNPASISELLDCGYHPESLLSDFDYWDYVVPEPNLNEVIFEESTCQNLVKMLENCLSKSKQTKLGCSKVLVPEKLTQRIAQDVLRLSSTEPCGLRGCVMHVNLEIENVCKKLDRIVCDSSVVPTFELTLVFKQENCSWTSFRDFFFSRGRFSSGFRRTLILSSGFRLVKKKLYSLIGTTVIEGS

[9] = molecular target: GFM1 (NP_079272.4) (human) (UniProt Q96RP9); assay: yeast two-hybrid, full length bait
[10] = molecular target: T1, PDHB (NP_000916.2) (human); assay: yeast two-hybrid, full length bait
[11] = molecular target: PDK4 (NP_002603.1) (human) (UniProt Q16654); assay: yeast two-hybrid, full length bait
[12] = molecular target: T2, PRDX3 (NP_006784.1) (human); assay: yeast two-hybrid, full length bait
[13] = molecular target: CARP (NP_055206.2) (human) (UniProt Q15327); assay: yeast two-hybrid, full length bait
[14] = molecular target: FABP3 (NP_004093.1) (human) (UniProt P05413); assay: yeast two-hybrid
[15] = molecular target: T4, FHL2 (NP_963851.2) (human) (UniProt Q14192); assay: yeast two-hybrid
T4 sequence (looked up): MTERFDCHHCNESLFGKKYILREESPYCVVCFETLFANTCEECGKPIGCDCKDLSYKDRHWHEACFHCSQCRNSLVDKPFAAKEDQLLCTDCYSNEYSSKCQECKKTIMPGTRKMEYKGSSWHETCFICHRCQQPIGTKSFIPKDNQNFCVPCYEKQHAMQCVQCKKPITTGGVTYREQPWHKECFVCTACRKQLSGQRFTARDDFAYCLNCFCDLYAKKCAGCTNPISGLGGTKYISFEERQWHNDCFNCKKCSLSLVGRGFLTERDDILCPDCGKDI

[16] = molecular target: EEF1G (NP_001395.1) (human) (UniProt P26641); assay: yeast two-hybrid
[17] = molecular target: FABP4 (NP_001433.1) (human) (UniProt P15090); assay: yeast two-hybrid
[18] = molecular target: ENO3 (NP_443739.2) (human) (UniProt P13929); assay: yeast two-hybrid
[19] = molecular target: sequestosome-1 (NP_003891.1) (human) (UniProt Q13501); assay: yeast two-hybrid
[20] = molecular target: FABP3 (NP_004093.1) (human) (UniProt P05413); assay: yeast two-hybrid, full length bait
[21] = molecular target: T4, FHL2 (NP_963851.2) (human); assay: yeast two-hybrid, full length bait
[22] = molecular target: EEF1G (NP_001395.1) (human) (UniProt P26641); assay: yeast two-hybrid, full length bait
[23] = molecular target: FABP4 (NP_001433.1) (human) (UniProt P15090); assay: yeast two-hybrid, full length bait
[24] = molecular target: ENO3 (NP_443739.2) (human) (UniProt P13929); assay: yeast two-hybrid, full length bait
[25] = molecular target: sequestosome-1 (NP_003891.1) (human) (UniProt Q13501); assay: yeast two-hybrid, full length bait

Measured: binding

212 amino acid residue central fragment of human MuRF1 (MuRF1 Bcc, B-Box + coiled-coil domain) (from UniProt Q969Q1 116-327)
binds: [1] | [2]

biotin-labeled 212-residue MuRF1 Bcc (from UniProt Q969Q1 116-327)
binds: [3]

human MuRF1 polypeptide (muscle ring finger 1), full length (from UniProt Q969Q1 14-353) (enzyme)
binds: [4] | [5] | [6] | [7] | [8] | DDIT4L (human) | [9] | [10] | [11] | [12] | [13]

human MuRF2 polypeptide (muscle ring finger 2), full length (from UniProt Q9BYV6 17-548) (enzyme)
not listed: [1] | [2] | [3]
binds: all other assays above
